Reference: PMC12227620
These are yes or no findings as the source states them, for the method shown. In cells and extracts the contact can be indirect. Some entries that bind do so weakly or less than the wild type.

By UniProt entry, the sequences of proteins in these tests, tags left out. Residues count along the entry.
UniProt P25025: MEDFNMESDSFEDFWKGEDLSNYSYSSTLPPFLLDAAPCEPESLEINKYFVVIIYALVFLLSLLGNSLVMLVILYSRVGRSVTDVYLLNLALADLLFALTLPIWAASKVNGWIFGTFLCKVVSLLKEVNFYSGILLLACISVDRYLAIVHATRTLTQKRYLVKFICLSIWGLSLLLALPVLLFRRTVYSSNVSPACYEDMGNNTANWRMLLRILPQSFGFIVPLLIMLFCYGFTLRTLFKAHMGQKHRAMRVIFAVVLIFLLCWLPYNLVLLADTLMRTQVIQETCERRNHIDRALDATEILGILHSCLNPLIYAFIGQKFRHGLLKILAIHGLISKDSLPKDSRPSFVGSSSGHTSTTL
UniProt Q14126, residues 50-1118: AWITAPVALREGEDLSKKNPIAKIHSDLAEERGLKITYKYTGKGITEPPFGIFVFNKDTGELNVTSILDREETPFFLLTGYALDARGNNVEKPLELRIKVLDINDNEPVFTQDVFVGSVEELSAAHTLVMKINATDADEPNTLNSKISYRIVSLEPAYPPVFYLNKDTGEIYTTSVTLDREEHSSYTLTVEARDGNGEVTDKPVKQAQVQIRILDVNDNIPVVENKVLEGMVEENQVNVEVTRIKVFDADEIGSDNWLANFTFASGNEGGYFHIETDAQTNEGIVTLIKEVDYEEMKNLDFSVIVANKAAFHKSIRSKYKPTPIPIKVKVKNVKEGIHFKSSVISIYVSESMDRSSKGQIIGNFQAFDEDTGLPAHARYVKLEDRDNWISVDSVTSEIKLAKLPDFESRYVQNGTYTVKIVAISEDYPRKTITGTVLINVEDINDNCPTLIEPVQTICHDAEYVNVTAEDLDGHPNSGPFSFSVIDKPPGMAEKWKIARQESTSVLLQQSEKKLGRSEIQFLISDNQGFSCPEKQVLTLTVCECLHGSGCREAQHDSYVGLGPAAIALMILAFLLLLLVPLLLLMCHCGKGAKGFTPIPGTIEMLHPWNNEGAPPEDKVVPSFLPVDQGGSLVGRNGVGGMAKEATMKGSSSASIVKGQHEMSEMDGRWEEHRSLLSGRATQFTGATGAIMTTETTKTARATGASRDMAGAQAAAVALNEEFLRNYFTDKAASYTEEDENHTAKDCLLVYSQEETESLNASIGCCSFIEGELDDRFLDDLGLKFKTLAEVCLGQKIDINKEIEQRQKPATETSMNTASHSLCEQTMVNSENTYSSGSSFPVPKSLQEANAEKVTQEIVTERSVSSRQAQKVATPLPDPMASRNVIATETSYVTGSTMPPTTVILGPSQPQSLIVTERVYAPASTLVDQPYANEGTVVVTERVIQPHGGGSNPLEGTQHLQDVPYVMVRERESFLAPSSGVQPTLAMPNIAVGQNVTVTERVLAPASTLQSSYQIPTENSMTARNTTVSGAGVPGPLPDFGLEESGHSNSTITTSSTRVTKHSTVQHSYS

Biological target: CXCR2 (human (endogenous in PDAC cells)) (UniProt P25025)
Assay: co-IP; lysates in NP-40 buffer incubated with antibody against human CXCR2 at 4 °C overnight, Protein G magnetic beads 4 h, five washes with PBS, immunoblotting; PDAC cells

For “Desmoglein-2 (from UniProt Q14126 50-1118)”, the binding was “binds”.
